In the experiment the test system is HEK1.65s cells. In kind it is cell-based, human.

“Also recorded” adds a separate entry of the source.

The source of these data is patent publication US20230183742A1, “Viral Vector Production” (Oxford BioMedica (UK) Limited, priority 2020, published 2023).

For `O=C(CCCCCCC(=O)Nc1ccccc1)NO` [SAHA, suberanilohydroxamic acid], the “inducing effect on LV titre among HDAC inhibitors” value is recorded as “lowest LV titres; also recorded: weakest inducing effect”.
